## Drug screen on melanoma cell lines: cell count

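Human melanoma cell lines in 1,536-well plates were treated with two drugs together for 72 h, then fixed, stained and imaged. The read-out is cell count (nuclei) in % of the DMSO control; lower values mean stronger growth inhibition or killing. Every drug was used at one fixed concentration, the higher of two screened. These are primary screening values without error estimates.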
Only some of the drugs and lines screened are listed, without regard to their results.

Every entry is a combination with palbociclib at 200 nM: CC(=O)c1c(C)c2cnc(Nc3ccc(N4CCNCC4)cn3)nc2n(C2CCCC2)c1=O

Compounds and concentrations:
fludarabine (1000 nM): Nc1nc(F)nc2c1ncn2[C@@H]1O[C@H](CO)[C@@H](O)[C@@H]1O
IMD-0354 (80 nM): O=C(Nc1cc(C(F)(F)F)cc(C(F)(F)F)c1)c1cc(Cl)ccc1O
pazopanib (2000 nM): Cc1ccc(Nc2nccc(N(C)c3ccc4c(C)n(C)nc4c3)n2)cc1S(N)(=O)=O
ZM336372 (10000 nM): Cc1ccc(NC(=O)c2cccc(N(C)C)c2)cc1NC(=O)c1ccc(O)cc1
VX-702 (2000 nM): NC(=O)c1ccc(N(C(N)=O)c2c(F)cccc2F)nc1-c1ccc(F)cc1F
nutlin-3 (500 nM): COc1ccc(C2=N[C@@H](c3ccc(Cl)cc3)[C@@H](c3ccc(Cl)cc3)N2C(=O)N2CCNC(=O)C2)c(OC(C)C)c1
GW2580 (5000 nM): COc1ccc(COc2ccc(Cc3cnc(N)nc3N)cc2OC)cc1
BI-78D3 (1000 nM): O=c1[nH]nc(Sc2ncc([N+](=O)[O-])s2)n1-c1ccc2c(c1)OCCO2
PF-04217903 (5000 nM): OCCn1cc(-c2cnc3nnn(Cc4ccc5ncccc5c4)c3n2)cn1
TCS401 (8330 nM): O=C(O)C(=O)Nc1sc2c(c1C(=O)O)CCNC2
AS-252424 (5000 nM): O=C1NC(=O)/C(=C/c2ccc(-c3ccc(F)cc3O)o2)S1
T0901317 (7000 nM): O=S(=O)(c1ccccc1)N(CC(F)(F)F)c1ccc(C(O)(C(F)(F)F)C(F)(F)F)cc1
tamatinib (2000 nM): COc1cc(Nc2ncc(F)c(Nc3ccc4c(n3)NC(=O)C(C)(C)O4)n2)cc(OC)c1OC
GSK650394 (800 nM): O=C(O)c1ccc(-c2c[nH]c3ncc(-c4ccccc4)cc23)cc1C1CCCC1
SNS-032 (50 nM): CC(C)(C)c1cnc(CSc2cnc(NC(=O)C3CCNCC3)s2)o1
STA-4783 (30 nM): CN(NC(=O)CC(=O)NN(C)C(=S)c1ccccc1)C(=S)c1ccccc1
GW441756 (2000 nM): Cn1cc(/C=C2\C(=O)Nc3cccnc32)c2ccccc21
embelin (6000 nM): CCCCCCCCCCCC1=C(O)C(=O)C=C(O)C1=O

| # | Second drug | COLO 829 |
|---|---|---|
| 1 | nutlin-3 | 76.0 |
| 2 | VX-702 | 95.9 |
| 3 | GW2580 | 87.7 |
| 4 | BI-78D3 | 71.0 |
| 5 | IMD-0354 | 103 |
| 6 | GSK650394 | 80.3 |
| 7 | PF-04217903 | 104 |
| 8 | tamatinib | 66.5 |
| 9 | embelin | 76.7 |
| 10 | pazopanib | 68.3 |
| 11 | AS-252424 | 90.3 |
| 12 | fludarabine | 79.2 |
| 13 | SNS-032 | 89.3 |
| 14 | GW441756 | 109 |
| 15 | ZM336372 | 106 |
| 16 | STA-4783 | 55.6 |
| 17 | T0901317 | 90.5 |
| 18 | TCS401 | 78.2 |

Some entries from above, unchanged:

{"second drug": "GW2580", "COLO 829": 87.7}
{"second drug": "ZM336372", "COLO 829": 106}

Source: doi:10.1371/journal.pone.0140310, primary screening data, rounded.